Laboratory results taken from US6593373B2, “Pharmaceutical compositions of O-desmethyl-N-mono-desmethyl-tramadol” (Gruenenthal GmbH, priority 2000, dated 2003).

By UniProt entry, the sequences of proteins in these tests, tags left out.
UniProt P33535, whole entry: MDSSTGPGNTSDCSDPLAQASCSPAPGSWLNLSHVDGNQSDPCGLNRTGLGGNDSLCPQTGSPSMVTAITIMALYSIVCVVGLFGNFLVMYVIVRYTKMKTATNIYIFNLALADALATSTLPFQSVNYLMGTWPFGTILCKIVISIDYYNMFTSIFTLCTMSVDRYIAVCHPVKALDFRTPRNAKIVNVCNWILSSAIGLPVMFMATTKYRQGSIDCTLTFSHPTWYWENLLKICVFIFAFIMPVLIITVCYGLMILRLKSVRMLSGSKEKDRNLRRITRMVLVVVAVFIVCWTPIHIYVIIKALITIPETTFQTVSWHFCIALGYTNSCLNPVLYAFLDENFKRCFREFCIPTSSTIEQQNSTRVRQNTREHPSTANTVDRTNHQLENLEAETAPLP

Columns and labels:
μ-opioid receptor = biological target: T1, μ-opioid receptor (Rattus norvegicus, UniProt P33535); test: μ-opioid (Naloxon) binding, in vitro rat brain
T1 construct: from tissue; host or cells: rat brain
Excerpt: The μ-opioid receptor binding was investigated in in vitro rat brain binding experiments using naloxone.

[1] = test system: neuronal uptake of norepinephrine (NE); test: Noradrenaline uptake inhibition, in vitro rat brain; format: biochemical; conditions: read-out: Noradrenalin uptake IC50
Excerpt: The inhibition of neuronal uptake of monoamines (norepinephrine; NE) was investigated in in vitro rat brain binding experiments.

## COc1cccc([C@@]2(O)CCCC[C@@H]2CN(C)C)c1 (racemic) [Tramadol, (1RS, 2RS)-2[(dimethylamino)methyl]-1-(3-methoxyphenyl)-cyclohexanol]
μ-opioid receptor
  IC50: 19.1 µM
[1]
  IC50: 2.8 µM
